# From the supplement of paper PMC3334620
# In all, about 33,000 sequences were measured (“E-score (-0.5 to 0.5)”: median about -0.015, highest 2% from about 0.3 on). Some of the results follow.
# Target: T1, Abf1 (UniProt P14164)
# T1 sequence: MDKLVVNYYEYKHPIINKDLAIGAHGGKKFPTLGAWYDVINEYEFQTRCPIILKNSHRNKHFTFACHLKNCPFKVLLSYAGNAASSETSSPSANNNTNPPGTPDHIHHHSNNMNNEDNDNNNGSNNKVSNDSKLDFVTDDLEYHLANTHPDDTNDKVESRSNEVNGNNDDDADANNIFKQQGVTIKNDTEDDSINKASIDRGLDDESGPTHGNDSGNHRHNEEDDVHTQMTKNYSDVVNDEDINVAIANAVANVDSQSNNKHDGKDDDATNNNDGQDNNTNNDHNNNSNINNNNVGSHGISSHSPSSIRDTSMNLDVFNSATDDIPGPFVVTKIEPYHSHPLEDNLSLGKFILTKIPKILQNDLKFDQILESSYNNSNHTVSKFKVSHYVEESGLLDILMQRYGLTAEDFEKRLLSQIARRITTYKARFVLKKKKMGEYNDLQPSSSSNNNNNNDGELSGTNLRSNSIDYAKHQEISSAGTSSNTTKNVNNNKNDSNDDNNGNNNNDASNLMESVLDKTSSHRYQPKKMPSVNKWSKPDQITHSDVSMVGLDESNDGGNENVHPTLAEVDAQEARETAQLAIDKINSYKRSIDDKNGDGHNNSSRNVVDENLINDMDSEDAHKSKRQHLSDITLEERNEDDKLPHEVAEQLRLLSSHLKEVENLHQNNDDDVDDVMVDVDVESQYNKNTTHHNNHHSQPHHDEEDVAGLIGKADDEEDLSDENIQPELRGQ
# Assay: PBM E-score (8-mer binding enrichment) (E-score (-0.5 to 0.5)); higher = stronger / more preferred TF binding
# Details: protein concentration: 200 nM; construct: GST-full length
# How it was run: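 Masliner-normalised scans of fluorescent anti-GST signal were the basis for scoring. That signal came from GST-tagged yeast transcription factors applied at about 100-200 nM to double-stranded universal all-10-mer Agilent arrays on fresh or once-stripped slides. Each ungapped eight-base word, pooled with its reverse complement, received an E-score from the Universal PBM Analysis Suite.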
row,Sequence,PBM E-score
1,ATCGCGAA,0.199
2,GCGAAAAC,-0.193
3,CATGGATA,-0.00259
4,AACACTTA,-0.206
5,AATAACGT,0.0535
6,ATAACAGG,-0.0349
7,CGGGAGTC,-0.0516
8,CGTTAACA,0.153
9,CTCGCTAC,0.0945
10,CCAAGGGG,-0.116
11,GATAGTGA,0.264
12,GAGCTAGC,-0.123
13,AAGATGAG,0.00927
14,AAGAGCAC,-0.116
15,CCACGCGA,0.018
16,GAGCCATA,0.148
17,AAACCATA,0.00947
18,CGTGTCGC,0.188
19,AGAAGCGA,0.0932
20,CAATCAGA,-0.159
21,CACACTGG,-0.166
22,ACAGTCAG,-0.0673
23,CACCAACC,-0.0713
24,ACAATTAA,0.0237
25,CTATACAG,-0.117

row,Sequence,PBM E-score
1,CGCACGAG,0.156
2,AGTTCTTA,0.107
3,ATATACCC,0.0559
4,ATGAGAAT,0.129
5,CGCGAGCG,-0.0571
6,AAGACACT,-0.1
7,AGGTCTGG,-0.199
8,CGGTGCGC,-0.271
9,CACTGCTC,-0.0279
10,CACGTCTA,0.166
11,GGTTATAC,0.0965
12,AATCACTG,0.204
13,GTATGAAC,-0.0505
14,AATCTTTC,0.159
15,GCACCCTA,-0.149
16,AATCCGTA,0.214
17,GACATACC,0.112
18,ATACACTG,-0.163
19,ACACTCGG,0.0882
20,GCTGGGAC,-0.122
21,GGGACTGA,-0.222
22,CTGGATGA,0.0651
23,CCGCTAGA,-0.23
24,AGAAAGCT,-0.0217
25,AGTAGGAG,-0.255

# Quoted from the listing.
# AATCCGTA – PBM E-score: 0.214
# AATCACTG – PBM E-score: 0.204
# CGGTGCGC – PBM E-score: -0.271
# GGTTATAC – PBM E-score: 0.0965
# GCACCCTA – PBM E-score: -0.149
# CACTGCTC – PBM E-score: -0.0279

# Next records follow.

row,Sequence,PBM E-score
1,GGGGTAAA,-0.0666
2,AGAAGGTG,0.00925
3,ACGGACCT,0.0844
4,GGCGGGCA,-0.0513
5,AGGAAGCG,-0.0323
6,AACAGTCC,-0.295
7,AGATCGCA,0.0409
8,TCAGATAA,0.119
9,AGGCATCA,-0.155
10,CGAAGAGA,0.00312
11,ACGCCCAG,-0.226
12,CGCCGACC,-0.183
13,CCGCACCC,-0.229
14,CAACAACA,0.0233
15,GTAGTAGA,0.0877
16,CGCCAGCA,-0.106
17,TATATGCA,0.0345
18,AGTACGAA,0.368
19,TAGTCGAA,-0.0557
20,GCTGGCGA,-0.155
21,ATGCCTCA,-0.00924
22,CGGAGCAG,-0.0605
23,CAGTGGAC,0.0873
24,ATTATAGC,0.121
25,ATGCCACC,-0.148

# An excerpt of these results, with tabs.
row	Sequence	PBM E-score
23	CACCAACC	-0.0713
24	ACAATTAA	0.0237
25	CTATACAG	-0.117

# Rewritten as tab-separated lines: entries from further up
row	Sequence	PBM E-score
25	CTATACAG	-0.117
1	CGCACGAG	0.156
2	AGTTCTTA	0.107
3	ATATACCC	0.0559
4	ATGAGAAT	0.129

# (next part)

row,Sequence,PBM E-score
1,CGGCGAGA,-0.0282
2,CTACATAC,0.093
3,ATGCGTAG,-0.0981
4,ACGATACT,0.285
5,AATGCCAG,-0.155
6,CCTGCATC,-0.0146
7,CCGGCCAA,0.0306
8,GTCGTTCA,0.26
9,GATTTAAC,0.0538
10,CTACGGCA,0.291
11,ATTATCCA,0.258
12,CTGTGTTA,0.134
13,GGTTTCTA,-0.0874
14,GGTGTAAA,-0.142
15,CTACACTA,0.0167
16,CACGTTAC,0.0218
17,CTTACTTA,-0.0806
18,CTGTAGGC,-0.263
19,TCTCATCA,0.145
20,ATTAATCG,0.15
21,ATCACTTA,0.355
22,GTGGGGCA,-0.175
23,GGCTCTGA,-0.0571
24,AATTGTGG,-0.0845
25,ACAGGTCG,-0.0539

row,Sequence,PBM E-score
1,AACCAACC,-0.119
2,ATAGTTAC,0.0283
3,GAAAGCAA,-0.0239
4,ACACGATA,0.295
5,GACCTAAA,0.0819
6,AGGTAGGA,-0.0462
7,CTAGGGAG,-0.257
8,TGGTCCAA,-0.196
9,GGGCCCCC,-0.462
10,TGAGCGAA,0.121
11,AACCCCGA,-0.00484
12,CCGTAAGA,0.168
13,CTAGAACA,0.0949
14,ACCTTAGC,-0.111
15,CTGGCTGA,0.0491
16,GTGTAGTA,0.0449
17,AACGTCGT,0.234
18,AGGGTCAT,-0.0478
19,AGCGTACG,0.0472
20,ATTAATAG,0.165
21,AGTCGCAA,-0.0319
22,CTCAAAGC,0.0933
23,AAGGCCCT,-0.131
24,CCCACCAA,-0.122
25,GAATGTGA,0.0214

row,Sequence,PBM E-score
1,CATTCGCA,-0.1
2,TCACCTAA,0.188
3,AGTTGGAA,-0.17
4,AATCGGTA,-0.0615
5,AATCGCGT,-0.0726
6,CTCCACTA,-0.0221
7,ATCAGTTC,-0.0785
8,AGATCCAG,-0.0713
9,GAGAGCTC,-0.305
10,ACTACGCG,0.0102
11,AGACCACA,-0.301
12,CCGAATCG,-0.0548
13,AGAAGAGC,-0.197
14,GAACTGGC,-0.13
15,AATTATGT,0.168
16,AAACGTCG,0.00886
17,CACCAGTA,-0.0692
18,GCAGTGGC,-0.119
19,AGAGACGA,0.153
20,CCGTGAGC,0.123
21,ACCGTTCC,0.141
22,ATAGGGGC,-0.271
23,AAACATAT,0.122
24,CGATCGTC,0.216
25,CAGCGTAA,-0.00124

row,Sequence,PBM E-score
1,CCACAGTC,-0.192
2,TCAACCGA,0.0347
3,CAGTATGG,-0.158
4,AAACTGGA,0.00973
5,CATTACAA,0.043
6,CGAAAAAC,0.156
7,GGATGCAA,-0.0772
8,GTTGTGGA,-0.176
9,AAGTGCCA,-0.105
10,CGAGCATA,0.0329
11,GTAACTGA,-0.042
12,CAAGGCTC,-0.13
13,CCCGTCCC,-0.163
14,AATCCCTG,-0.186
15,GCAGGGTA,-0.0134
16,TGGACACA,-0.0786
17,ATGAGGTG,0.139
18,AAGCCAGT,-0.108
19,AGTCGATG,0.0166
20,ACTGGAAC,-0.00138
21,TTTATAAA,0.29
22,ATCGCTCG,0.204
23,ACTACACT,0.0328
24,ACGATAAC,0.224
25,GAGGCAAA,-0.0198

row,Sequence,PBM E-score
1,AAGACGAG,-0.0454
2,CGATGATC,0.287
3,ATGTCACG,0.437
4,AGGGAGGC,-0.333
5,ACTCGCGG,0.0316
6,GTGGCCAC,0.15
7,AGCGTTGA,0.104
8,GACGGTGC,0.102
9,GAGGTTGA,-0.042
10,CGGTTAAA,-0.113
11,ACTGCATC,0.0268
12,CCTAGCGA,0.0769
13,ATTATAAA,0.0931
14,AAGCCCCG,-0.3
15,AATTTGAC,0.183
16,GACTCAGA,-0.145
17,CAGACCAC,-0.239
18,TACCGAGA,0.00246
19,GCAGAGAC,-0.219
20,GAGTACGC,0.128
21,TTGAGCAA,-0.199
22,AACCTTGG,-0.0513
23,CGCATTAA,0.137
24,CCTCCTGC,-0.253
25,ACCACCGA,-0.0146

row,Sequence,PBM E-score
1,CGACAAAA,0.241
2,CTGGACAA,0.0151
3,CAACCCAG,-0.148
4,TCCAGAGA,-0.145
5,CCGATACC,-0.101
6,TCAATAAA,0.0473
7,AGAGGACC,-0.254
8,CTTTTGGA,-0.0138
9,GGTTTTGA,0.066
10,GGTTCAGA,-0.111
11,AGTGCGAT,-0.00019
12,TCTGCCCA,-0.0147
13,ACCATCTC,-0.0694
14,CCCTCACA,-0.144
15,AAAGAACT,0.0334
16,GCATGGTA,-0.0541
17,CTTCACGA,0.2
18,AGTATCGC,0.0404
19,ATTCAGGA,-0.066
